# PubChem BioAssay AID485314 (National Center for Advancing Translational Sciences (NCATS), 2010)
# The campaign covered roughly 340,000 compounds. About 4,500 (1.3%) were called active. The inconclusive results got no clear call from the source; some entries with a clear call stand among them for comparison. The call rests on the fitted dose curve; in most records, active means well fitted inhibition curve with a large enough effect; inconclusive means small, poorly fitted or top-dose-only effect, or another doubt; inactive means no such curve, though single readings can be large or run the other way. Where the call is inconclusive, the potency comes from a doubtful curve fit.
# Target: DNA polymerase beta (Homo sapiens) (UniProt P06746)
# Assay: qHTS Assay for Inhibitors of DNA Polymerase Beta
# Conditions: Pol beta primer extension/strand displacement, fluorescence kinetic; activity change, negative = inhibition: at 114 µM (top of the series)
# Outline: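 Values derive from four-parameter Hill fits of normalized kinetic data: reads at 0 and 10 min following addition of 50 nM substrate to 10 nM Pol beta preincubated 15 min with compound.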
# On the % scale 0 is the no-effect control and ±100 the full control effect; potency means the concentration at half of the fitted maximal effect.
Structure (SMILES),Potency,"activity change, negative = inhibition"
CCN(CC)c1ccc(NC(=O)Cn2c3ncccc3c(=O)n2-c2ccccc2)c(C)c1,inactive,–
CCOc1cc(/C=C2/C(=N)N3N=C(CC)SC3=NC2=O)ccc1OC(=O)c1ccco1,inactive,–
CCOc1c(S(=O)(=O)NC2CC(C)(C)NC(C)(C)C2)ccc(Cl)c1Cl,"inconclusive: 6.31 µM [inhibitor, full curve, poor fit]",–
Cc1ccc(C(C)C)c(OCc2ccc(C(=O)N/N=C/c3ccc(O)c(O)c3)cc2)c1,"inconclusive: 2.24 µM [inhibitor, full curve]",–
Cc1nn(CC(=O)NCc2ccc(OC(C)C)cc2)c(=O)c2cc3occc3n12,"inconclusive: 10 µM [inhibitor, full curve, poor fit]",–
CCOc1ccc2cc(C(=O)NCc3ccccc3)c(=N)oc2c1,"inconclusive: 0.141 µM [inhibitor, full curve]",–
FC(F)(F)c1ccc(Cl)c(-n2c(-c3cc(-c4ccco4)[nH]n3)n[nH]c2=S)c1,–,inconclusive: -50.8% [inhibitor]
CCCCN=Cc1c(C)[nH]n(-c2ccccc2)c1=S,inactive,–
O=C(NCCc1ccc(Cl)cc1)c1nnc(Cc2ccc(Cl)cc2)o1,"inconclusive: 100 µM [inhibitor, single point]",–
COc1ccc(/C(N)=N/OC(=O)c2ccco2)cc1,"inconclusive: 89.1 µM [inhibitor, single point]",–
Cc1c(NS(=O)(=O)c2cc(NC(=O)CCN3CCCC(C)C3)ccc2Cl)c(=O)n(-c2ccccc2)n1C (configuration not stated),"inconclusive: 39.8 µM [inhibitor, single point]",–
CCCN1CCN(CCCNC(=O)c2ccc3c(c2)sc2nc(-c4ccc(OCC)cc4)cn23)CC1,"inconclusive: 4.47 µM [inhibitor, full curve, poor fit]",–
Cc1ccc(OCC(=O)Nc2ccc(-c3nnc(-c4ccco4)o3)cc2)cc1,active: 14.1 µM,–
CCOc1ccc(C(C)(C)C)cc1S(=O)(=O)Nc1ccncc1,"inconclusive: 89.1 µM [inhibitor, single point]",–
Cc1cc(C)cc(OCC(=O)N(Cc2ccc(Cl)cc2)C2CCS(=O)(=O)C2)c1 (configuration not stated),"inconclusive: 39.8 µM [inhibitor, single point]",–
N#Cc1c(SCC(=O)Nc2nc3ccc(Br)cc3s2)sc2c(O)cc(=O)[nH]c12,active: 35.5 µM,–
COc1ccccc1CNC(=O)C1CCN(C2=NS(=O)(=O)C(c3ccc(C)c(C)c3)=C2C)CC1,"inconclusive: 79.4 µM [inhibitor, single point]",–
CCn1c2ccccc2c2nnc(SCC(=O)Nc3cc(C)on3)nc21,"inconclusive: 0.794 µM [inhibitor, partial curve, poor fit]",–
COc1ccc(CCNC(=O)c2ccc(Cn3c(=O)c4ccccc4n(Cc4ccc(F)cc4Cl)c3=O)cc2)cc1OC,inactive,–
CCn1nc(NC(=O)c2cccnc2)c2cc3cccc(C)c3nc21,"inconclusive: 22.4 µM [inhibitor, full curve]",–
CCCn1cc(CN2CCC(n3nccc3NC(=O)CCOc3ccccc3)CC2)c(C)n1,–,inconclusive: -32.3% [inhibitor]
CCOCCc1nnc(NC(=O)CCc2ccccc2)s1,inactive,–
COc1ccc(OC)c(NC(=O)Cn2ncc3c2-c2ccccc2OC3)c1,inactive,–
COc1ccc(-c2c[n+]3c4n2CCCCC4=C(c2ccc(Br)cc2)C3)cc1,active: 25.1 µM,–

Structure (SMILES),Potency,"activity change, negative = inhibition"
CC(C)c1ccc(CN(C(=O)/C=C/c2ccco2)C2CCS(=O)(=O)C2)cc1 (configuration not stated),"inconclusive: 44.7 µM [inhibitor, partial curve]",–
COc1ccc(/C=N/Nc2ncnc3c2[nH]c2ccccc23)c(OC)c1OC,"inconclusive: 22.4 µM [inhibitor, full curve]",–
COc1ccc(CNC(=O)CCCN2C(=O)CCn3nc(-c4cn(C)c5ccccc45)cc32)cc1,inactive,–
CCn1cc(C(=O)NCCCN2CC(C)CC(C)C2)c(=O)c2cc(S(=O)(=O)N(C)C3CCCCC3)ccc21 (configuration not stated),"inconclusive: 0.224 µM [inhibitor, full curve, poor fit]",–
N#C/C(=C\c1ccc(OCc2ccc(F)cc2)cc1)C(=O)Nc1cccc(C(=O)O)c1,–,inconclusive: -107% [inhibitor]
COc1cc2nc(N3CCN(c4cc(C)ccc4C)CC3)nc(N)c2cc1OC,"inconclusive: 89.1 µM [inhibitor, single point]",–
Cc1nn(Cc2ccc(Cl)cc2)c(C)c1NC(=O)CCCn1nc([N+](=O)[O-])c(Cl)c1C,active: 89.1 µM,–
COc1cccc(-c2cn3c(n2)sc2cc(C(=O)NCc4ccccc4F)ccc23)c1,inactive,–
O=C(O)c1cc(N/N=C/c2ccc3c(c2)OCCO3)ccc1Cl,"inconclusive: 89.1 µM [inhibitor, single point]",–
O=C1CN(C(=O)c2ccc(S(=O)(=O)N3CCCCC3)cc2)C(c2ccc(F)cc2)c2cc(Cl)ccc2N1 (configuration not stated),inactive,–
COc1ccc(C2=C(C)C(=O)N(Cc3ccc(C(=O)Nc4ccc(F)cc4C)cc3)S2(=O)=O)cc1,inactive,–
Cc1cc(-c2ccccc2)c2c(=O)[nH][nH]c2n1,inactive,–
COc1ccc(CCNC(=O)CCS(=O)(=O)c2ccc(Br)cc2)cc1OC,"inconclusive: 7.94 µM [inhibitor, full curve, poor fit]",–
Cc1ccc(N2CC(NC(=O)C(=O)c3c[nH]c4ccccc34)CC2=O)cc1 (configuration not stated),inactive,–
CCc1ccccc1NC(=O)c1nc(-c2ccncc2)no1,"inconclusive: 25.1 µM [inhibitor, single point]",–
CCOC(=O)c1c(S(=O)(=O)N2CCC(C(=O)N3CCN(c4cc(C)ccc4C)CC3)CC2)c(C)n(C)c1C,inactive,–
Cc1cc(C(C)(C)C)cc(C)c1Cn1c2[n+](c3ccc(C(F)(F)F)cc31)CCCCC2,inactive,–
C/C(=N\NC(=O)Cc1cccn1C)c1ccc2ccccc2c1,inactive,–
COc1cc(/C=C2\SC(=S)N(Nc3ncc(C(F)(F)F)cc3Cl)C2=O)cc(OC)c1OC,"inconclusive: 2.24 µM [inhibitor, full curve]",–
Oc1ccc(NCc2ccc(OCc3ccccc3Cl)cc2)cc1,inactive,–
Cn1c(SCC(=O)Nc2ccc3nc(SCC(=O)N4CCCC4)sc3c2)nnc1-c1ccccc1,active: 7.08 µM,–
CC(C)CCNC(=O)c1ccc2c(c1)N(Cc1ccccc1)C(=O)CS2=O (configuration not stated),"inconclusive: 100 µM [inhibitor, single point]",–
COc1ccc(-c2nnc(NC(=O)c3cccs3)s2)c(OC)c1,"inconclusive: 89.1 µM [inhibitor, single point]",–
O=C(NNc1c2ccccc2nc2ccccc12)c1ccc(O)cc1,active: 79.4 µM,–

# 19 compounds already listed, arranged by number of heavy atoms, high to low.
Structure (SMILES),Potency,"activity change, negative = inhibition"
COc1ccc(CCNC(=O)c2ccc(Cn3c(=O)c4ccccc4n(Cc4ccc(F)cc4Cl)c3=O)cc2)cc1OC,inactive,–
CCOC(=O)c1c(S(=O)(=O)N2CCC(C(=O)N3CCN(c4cc(C)ccc4C)CC3)CC2)c(C)n(C)c1C,inactive,–
O=C1CN(C(=O)c2ccc(S(=O)(=O)N3CCCCC3)cc2)C(c2ccc(F)cc2)c2cc(Cl)ccc2N1 (configuration not stated),inactive,–
CCCN1CCN(CCCNC(=O)c2ccc3c(c2)sc2nc(-c4ccc(OCC)cc4)cn23)CC1,"inconclusive: 4.47 µM [inhibitor, full curve, poor fit]",–
COc1ccc(CNC(=O)CCCN2C(=O)CCn3nc(-c4cn(C)c5ccccc45)cc32)cc1,inactive,–
COc1ccccc1CNC(=O)C1CCN(C2=NS(=O)(=O)C(c3ccc(C)c(C)c3)=C2C)CC1,"inconclusive: 79.4 µM [inhibitor, single point]",–
CCN(CC)c1ccc(NC(=O)Cn2c3ncccc3c(=O)n2-c2ccccc2)c(C)c1,inactive,–
COc1cccc(-c2cn3c(n2)sc2cc(C(=O)NCc4ccccc4F)ccc23)c1,inactive,–
Cc1nn(CC(=O)NCc2ccc(OC(C)C)cc2)c(=O)c2cc3occc3n12,"inconclusive: 10 µM [inhibitor, full curve, poor fit]",–
N#Cc1c(SCC(=O)Nc2nc3ccc(Br)cc3s2)sc2c(O)cc(=O)[nH]c12,active: 35.5 µM,–
COc1ccc(-c2c[n+]3c4n2CCCCC4=C(c2ccc(Br)cc2)C3)cc1,active: 25.1 µM,–
CCn1c2ccccc2c2nnc(SCC(=O)Nc3cc(C)on3)nc21,"inconclusive: 0.794 µM [inhibitor, partial curve, poor fit]",–
CCOc1c(S(=O)(=O)NC2CC(C)(C)NC(C)(C)C2)ccc(Cl)c1Cl,"inconclusive: 6.31 µM [inhibitor, full curve, poor fit]",–
Oc1ccc(NCc2ccc(OCc3ccccc3Cl)cc2)cc1,inactive,–
O=C(O)c1cc(N/N=C/c2ccc3c(c2)OCCO3)ccc1Cl,"inconclusive: 89.1 µM [inhibitor, single point]",–
CCc1ccccc1NC(=O)c1nc(-c2ccncc2)no1,"inconclusive: 25.1 µM [inhibitor, single point]",–
CCOCCc1nnc(NC(=O)CCc2ccccc2)s1,inactive,–
COc1ccc(/C(N)=N/OC(=O)c2ccco2)cc1,"inconclusive: 89.1 µM [inhibitor, single point]",–
Cc1cc(-c2ccccc2)c2c(=O)[nH][nH]c2n1,inactive,–

# (further entries)

Structure (SMILES),Potency,"activity change, negative = inhibition"
CC1CCN(S(=O)(=O)c2cn(CC(=O)N3CCN(c4cccc(C(F)(F)F)c4)CC3)cn2)CC1,"inconclusive: 0.126 µM [inhibitor, full curve, poor fit]",–
CN(CC(=O)Nc1ccc(Cl)cc1)C(=O)CCc1ccccc1,inactive,–
Cc1cn(C)c(CC(=O)N2CCN(c3ccccc3F)CC2)c1C(=O)O,"inconclusive: 89.1 µM [inhibitor, single point]",–
Cc1ccc(-n2c(CCc3nc4ccccc4[nH]3)n[nH]c2=S)cc1,inactive,–
Cc1cc(C)nc(SCC(=O)c2ccc(C)c(C)c2)n1,inactive,–
C=CCN1C(=O)CSc2ccc(C(=O)NCCC3=CCCCC3)cc21,inactive,–
CSCC(C)N1CCC(n2nccc2NC(=O)c2ccc3c(c2)OCO3)CC1 (configuration not stated),inactive,–
CCOC(=O)c1nnn(-c2nonc2OC)c1-c1ccccc1,"inconclusive: 0.794 µM [inhibitor, full curve, poor fit]",–
CC1CCN(S(=O)(=O)c2ccc3c(c2)N(CC(=O)O)C(=O)CO3)CC1,inactive,–
Cc1cccc(Cn2c(C)c(CNC3CCCCC3)c(C(=O)O)c2C)c1,inactive,–
CCCS(=O)(=O)N1CCCC(C(=O)NC2CCCC(C)C2C)C1 (configuration not stated),"inconclusive: 3.16 µM [inhibitor, partial curve]",–
O=c1sc2ccccc2c(N2CCCC2)c1[N+](=O)[O-],"inconclusive: 0.562 µM [inhibitor, full curve, poor fit]",–
COc1ccc(CCNC(=O)c2cc3c(=O)n4ccccc4nc3n(CCCN3CCOCC3)c2=N)cc1,inactive,–
Cc1cccc(OCC(=O)Nc2nnc(-c3ccco3)s2)c1,"inconclusive: 20 µM [inhibitor, full curve, poor fit]",–
CCOC(=O)c1ccc(NC(=S)NC(=O)C2CCCC2)cc1,"inconclusive: 0.398 µM [inhibitor, full curve, poor fit]",–
Cc1c(C(=O)NCCc2ccc(S(N)(=O)=O)cc2)sc2nc3n(c(=O)c12)CCCC3,inactive,–
CCOc1ccc2nc3sc(C(=O)N4CCN(C)CC4)c(N)c3cc2c1,"inconclusive: 56.2 µM [inhibitor, partial curve]",–
Cc1ccc2nc(/C(C#N)=C\c3ccc(Oc4ccc(C(F)(F)F)cc4[N+](=O)[O-])cc3)[nH]c2c1,active: 7.08 µM,–
COCCC(=O)N1CCc2c([nH]c3ccccc23)C1C(C)(C)C (configuration not stated),inactive,–
O=C(NCCC1=CCCCC1)c1ccc2c(c1)N(Cc1cccc(Cl)c1)C(=O)c1ccccc1S2(=O)=O,inactive,–
Cc1ccc(NC(=O)CSc2nc(NS(=O)(=O)c3ccccc3)cc(=O)[nH]2)cc1,active: 22.4 µM,–
O=C(O/N=C1\CCS(=O)(=O)c2sccc21)c1c(F)cccc1F,inactive,–
CSCCC(NC(=O)c1c(C)oc2c1CCCC2)C(=O)O (configuration not stated),"inconclusive: 89.1 µM [inhibitor, single point]",–
O=C(O)c1cc2cc(F)ccc2[nH]1,inactive,–
